Measured data: PubChem BioAssay AID1259264 (Sanger Institute, 2017)

Screen: 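Kinases whose loss cuts CL40 colorectal cancer cell survival, alone or with drugs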 (primary screen)
Cells: CL40 human colorectal cancer cells
Reagents: siRNA pool against human genes
Challenge: DMSO, or an anchor drug: BYL719 at 1 µM, cetuximab at 5 µg/ml, or trametinib at 10 nM
Measurement: 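Replicate-mean viability versus a non-targeting pool, robust z-score from control wells, and mean synergy with BYL719 1 µM, cetuximab 5 µg/ml or trametinib 10 nM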
Reading the numbers: robust z-score, siRNA alone and viability, siRNA alone: higher = more viable cells; synergy score with BYL719: higher = stronger combined killing with BYL719
Rule for the call: 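Essential call: siRNA with no drug reaches a robust z under -3 (low cell count); drug synergy scores do not affect it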
Meaning of the calls: active = essential (lowers viability alone); inactive = not essential
Shown is an unselected part of 794 deposited reagents. 15 of them (1.9%) count as active. 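Calls rest on knock-down alone at z-score below -3; synergy scores with the three drugs do not decide them.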 Entries without a mark were called inactive. No viability above 1 is reported: the scale is capped. Further read-outs or replicates are left out here. Not given: the amount of reagent, the time to read-out.

Gene | robust z-score, siRNA alone | viability, siRNA alone (fraction of control) | synergy score with BYL719
PDGFRA | 0.539 | 1 | 0.00621
PKIB | 0.539 | 1 | -0.0409
MAGI3 | 0.539 | 1 | -0.0342
STK10 | 0.539 | 1 | -0.107
PKN1 | 0.539 | 1 | -0.0899
CDK14 | 0.539 | 1 | -0.142
STAG2 | 0.539 | 1 | -0.0442
ATP23 | -0.809 | 0.903 | -0.0263
KHK | -0.669 | 0.913 | -0.22
XYLB | 0.386 | 0.989 | -0.152
GK2 | 0.0362 | 0.964 | -0.0885
RPS6KB1 | 0.539 | 1 | 0.0775
STK26 | -0.176 | 0.949 | -0.0203
GUCY2C | 0.273 | 0.981 | -0.126
N4BP2 | 0.539 | 1 | -0.0536
KMT2B | 0.46 | 0.994 | -0.161
TSSK6 | 0.414 | 0.991 | -0.0302
EIF2AK4 | -0.763 | 0.907 | -0.235
PDGFRL | 0.355 | 0.987 | -0.109
PKM | 0.539 | 1 | -0.0216
AKT3 | 0.539 | 1 | -0.102
HIPK1 | -0.37 | 0.935 | -0.112
MAPK3 | -0.675 | 0.913 | -0.0135
EPHA6 | 0.148 | 0.972 | -0.0283
CSNK1A1L | 0.539 | 1 | -0.154
DBF4 | 0.539 | 1 | -0.129
ACSL6 | -0.251 | 0.943 | -0.115
CERT1 | 0.539 | 1 | -0.0146
CDC42BPG | 0.539 | 1 | -0.117
NEK11 | -0.175 | 0.949 | -0.0681
MYH10 | 0.389 | 0.989 | -0.131
MAP3K3 | -0.438 | 0.93 | -0.0236
MYLK | -0.00271 | 0.961 | -0.151
IGF2R | -0.19 | 0.948 | -0.112
RPS6KC1 | 0.278 | 0.981 | -0.141
SRGAP3 | 0.539 | 1 | -0.156
CHD4 | -1.4 | 0.861 | 0.0492
BRD4 | 0.539 | 1 | -0.0513
SRPK1 | -0.227 | 0.945 | -0.156
PIK3C2G | -1.79 | 0.833 | -0.106
HCK | 0.539 | 1 | -0.133
CALM3 | 0.209 | 0.976 | -0.0672
PIP5K1B | 0.539 | 1 | -0.0334
ARID1A | -0.684 | 0.912 | -0.0742
DAPK3 | 0.216 | 0.977 | -0.0494
DMPK | 0.539 | 1 | -0.0127
SRPK2 | 0.194 | 0.975 | -0.0818
NADK | 0.539 | 1 | -0.0542
DSTYK | 0.539 | 1 | -0.109
PXK | 0.539 | 1 | -0.0444
